Source: PMC8173209
Results are given in words; binding and its absence hold for the method and conditions named. Binding seen in cells or lysates may run through a third protein. Some binding calls cover weakened binding; strength is not graded here. Values belong to the substance of their own block, whether it stands above or below them.

Protein sequences, listed by entry. Tags and fused reporters are not part of them.
UniProt P03372: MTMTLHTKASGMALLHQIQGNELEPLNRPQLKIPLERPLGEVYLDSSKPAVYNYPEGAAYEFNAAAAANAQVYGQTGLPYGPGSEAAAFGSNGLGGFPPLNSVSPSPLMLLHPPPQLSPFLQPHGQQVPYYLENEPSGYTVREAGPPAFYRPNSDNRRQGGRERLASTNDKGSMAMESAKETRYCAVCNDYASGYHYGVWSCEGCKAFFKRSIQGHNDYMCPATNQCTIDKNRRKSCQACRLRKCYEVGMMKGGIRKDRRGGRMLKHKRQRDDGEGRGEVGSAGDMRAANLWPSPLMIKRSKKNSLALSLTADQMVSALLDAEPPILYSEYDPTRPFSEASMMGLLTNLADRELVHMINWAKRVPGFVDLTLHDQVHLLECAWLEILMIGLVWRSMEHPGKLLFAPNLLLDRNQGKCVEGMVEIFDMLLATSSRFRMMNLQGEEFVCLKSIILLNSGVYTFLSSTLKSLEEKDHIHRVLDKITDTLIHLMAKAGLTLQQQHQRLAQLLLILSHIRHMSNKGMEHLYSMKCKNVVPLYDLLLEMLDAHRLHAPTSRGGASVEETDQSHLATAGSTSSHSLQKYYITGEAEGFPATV
UniProt Q9BYM8: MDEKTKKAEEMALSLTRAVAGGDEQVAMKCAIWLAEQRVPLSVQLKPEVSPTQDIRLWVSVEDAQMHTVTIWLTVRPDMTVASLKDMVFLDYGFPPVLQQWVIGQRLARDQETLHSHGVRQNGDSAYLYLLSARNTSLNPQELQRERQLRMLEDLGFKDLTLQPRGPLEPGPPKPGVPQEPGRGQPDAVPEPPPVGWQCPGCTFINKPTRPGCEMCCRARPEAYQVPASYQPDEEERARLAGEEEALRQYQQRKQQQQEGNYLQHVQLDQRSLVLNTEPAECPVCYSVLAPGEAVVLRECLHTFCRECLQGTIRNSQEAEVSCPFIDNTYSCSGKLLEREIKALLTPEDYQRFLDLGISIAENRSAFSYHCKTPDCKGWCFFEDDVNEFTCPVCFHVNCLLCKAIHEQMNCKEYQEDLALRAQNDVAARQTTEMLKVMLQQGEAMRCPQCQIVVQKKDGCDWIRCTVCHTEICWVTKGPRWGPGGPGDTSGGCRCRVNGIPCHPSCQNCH

Key:
HA-ERα full length = HA-ERα full length (UniProt P03372); assay: co-IP; HEK293 cells transfected with HA-ERα and Flag-HOIL-1 full length or deletion mutants; NP-40 lysis buffer after 24 h; IP with HA antibody, detection with Flag antibody
Flag-HOIL-1 full length = Flag-HOIL-1 full length (UniProt Q9BYM8); assay: co-IP; HEK293 cells transfected with Flag-HOIL-1 and HA-ERα full length or deletion mutants; NP-40 lysis buffer after 24 h; IP with Flag antibody, detection with HA antibody
[1] = biological target: Estrogen receptor α (ERα), endogenous (human (endogenous in MCF-7)) (UniProt P03372); assay: co-IP; endogenous proteins, MCF-7 cells harvested with RIPA lysis buffer; lysate pre-cleared with rabbit IgG, immunoprecipitated with ERα antibody (D8H8) overnight, blotted with anti-HOIL-1; rabbit IgG as negative control

binding (HA-ERα full length): binds
Substance: Flag-HOIL-1 full length (from UniProt Q9BYM8 1-510)

binding (Flag-HOIL-1 full length): binds
Substance: HA-ERα full length (from UniProt P03372 1-595)

binding [1]: binds
Substance: HOIL-1 (Haem-oxidized IRP2 Ubiquitin Ligase-1), endogenous (from UniProt Q9BYM8 1-510)
